In assay [1] the target is T1, FtsI (E. coli) (UniProt P0AD68).
T1 sequence: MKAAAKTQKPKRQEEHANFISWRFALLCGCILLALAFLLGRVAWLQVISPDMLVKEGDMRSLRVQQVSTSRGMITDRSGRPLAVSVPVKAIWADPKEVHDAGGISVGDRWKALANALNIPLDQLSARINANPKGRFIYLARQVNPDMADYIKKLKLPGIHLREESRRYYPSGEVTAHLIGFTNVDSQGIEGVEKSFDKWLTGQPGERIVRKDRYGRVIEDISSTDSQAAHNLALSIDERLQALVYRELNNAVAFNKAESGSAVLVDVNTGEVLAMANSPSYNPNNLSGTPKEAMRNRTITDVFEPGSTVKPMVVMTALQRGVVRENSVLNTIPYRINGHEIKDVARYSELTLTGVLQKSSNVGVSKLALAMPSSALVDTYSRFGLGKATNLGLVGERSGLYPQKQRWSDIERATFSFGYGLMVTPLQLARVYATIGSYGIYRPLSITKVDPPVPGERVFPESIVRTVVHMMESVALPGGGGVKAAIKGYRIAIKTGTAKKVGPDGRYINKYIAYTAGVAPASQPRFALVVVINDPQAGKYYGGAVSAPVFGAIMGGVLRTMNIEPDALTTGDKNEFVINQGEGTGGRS
Put plainly: two-hybrid.

For assay [2], the target named is T2, FtsW (E. coli) (UniProt P0ABG4).
T2 sequence: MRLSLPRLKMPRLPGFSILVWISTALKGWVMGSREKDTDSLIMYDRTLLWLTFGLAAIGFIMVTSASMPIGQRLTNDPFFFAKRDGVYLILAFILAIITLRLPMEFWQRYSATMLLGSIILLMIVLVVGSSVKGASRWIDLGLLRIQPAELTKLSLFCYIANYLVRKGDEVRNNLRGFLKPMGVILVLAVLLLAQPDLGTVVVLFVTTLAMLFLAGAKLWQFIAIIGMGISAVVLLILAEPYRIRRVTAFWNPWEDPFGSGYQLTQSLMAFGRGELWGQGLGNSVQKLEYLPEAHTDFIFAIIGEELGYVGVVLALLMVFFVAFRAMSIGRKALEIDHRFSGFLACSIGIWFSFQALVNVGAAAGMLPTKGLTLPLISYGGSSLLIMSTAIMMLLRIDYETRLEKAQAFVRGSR
Put plainly: two-hybrid.

No constants are given. Whether binding was seen depends on the method and setting. Some entries that bind do so weakly or less than the wild type.

B1: FtsL (protein, UniProt P0AEN4 1-121)
chain: MISRVTEALSKVKGSMGSHERHALPGVIGDDLLRFGKLPLCLFICIILTAVTVVTTAHHTRLLTAQREQLVLERDALDIEWRNLILEENALGDHSRVERIATEKLQMQHVDPSQENIVVQK
Regarding B1, the binding result in assay [1] and in assay [2] was “binds” each time.

B2: FtsL^Δ1-30/G92D/E88K (domain or fragment, UniProt P0AEN4 30-121)
chain: DDLLRFGKLPLCLFICIILTAVTVVTTAHHTRLLTAQREQLVLERDALDIEWRNLILEKNALDDHSRVERIATEKLQMQHVDPSQENIVVQK
Turning to B2, the binding result in assay [1] is given as “binds”; in assay [2] it was “binds weakly”.

B3: FtsL^Δ1-30 with the two activation mutations and ftsL^E87K (domain or fragment, UniProt P0AEN4 30-121)
chain: DDLLRFGKLPLCLFICIILTAVTVVTTAHHTRLLTAQREQLVLERDALDIEWRNLILKKNALDDHSRVERIATEKLQMQHVDPSQENIVVQK
As to B3, the binding result in assay [1] and in assay [2] was “no binding” each time.

B4: FtsL^Δ1-30 (domain or fragment, UniProt P0AEN4 30-121)
chain: DDLLRFGKLPLCLFICIILTAVTVVTTAHHTRLLTAQREQLVLERDALDIEWRNLILEENALGDHSRVERIATEKLQMQHVDPSQENIVVQK
For the molecule B4, the binding entry in assay [1] and in assay [2] was “no binding” throughout.

Source of the values: article doi:10.1101/2020.09.01.275982.
